For at least one entry, the source does not settle the construct or the ends of the probe. Protein sequences can lack the tags named with them.
Target: T1, Lambda integrase (Int) (Bacteriophage lambda) (UniProt P03700)
T1 sequence (looked up, limits assumed): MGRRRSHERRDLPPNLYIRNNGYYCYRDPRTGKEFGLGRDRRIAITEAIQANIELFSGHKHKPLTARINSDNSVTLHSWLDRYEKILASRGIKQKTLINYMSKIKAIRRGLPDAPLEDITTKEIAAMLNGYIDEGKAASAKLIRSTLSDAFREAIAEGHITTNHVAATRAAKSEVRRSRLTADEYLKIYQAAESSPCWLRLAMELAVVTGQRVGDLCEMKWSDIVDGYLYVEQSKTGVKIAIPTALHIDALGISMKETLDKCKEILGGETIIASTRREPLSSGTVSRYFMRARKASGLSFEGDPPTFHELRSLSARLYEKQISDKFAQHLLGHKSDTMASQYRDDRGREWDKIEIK
Experiment: activity in cells
Conditions: control without Int 100% blue, junction confirmed by sequencing, protein in cells

Row | Sequence | activity on this sequence (% white plaques (inversion)) (attP x attB inversion in Janus vector in E. coli JM101 p(Int) with IPTG) | activity on this sequence (% white plaques (inversion)) (attB x attP inversion in Janus vector in E. coli JM101 p(Int) with IPTG)
1 | GCGCTAATGCTCTGTTACAGGTCACTAATACCATCTAAGTAGTTGATTCATAGTGACTGCATATGTTGTGTTTTACAGTATTATGTAGTCTGTTTTTTATGCAAAATCTAATTTAATATATTGATATTTATATCATTTTACGTTTCTCGTTCAGCTTTTTTATACTAAGTTGGCATTATAAAAAAGCATTGCTTATCAATTTGTTGCAACGAACAGGTCACTATCAGTCAAAATAAAATCATTATTTGATTTCAATTTTGTCCCACTCCCTGCCTCTGTCATCACGATACTGTGATGCCATGGTGTCCGACTTATGCCCGAGAAGATGTTGAGCAAACTTATCGCTTATCTGCTTCTCATAGAGTCTTGCAGACAAACTGCGCAACTCGTGAAAGGTAGGCG (double strand) [attP site in Janus vector] | > 90 | 
2 | AGCTCCCGGGGTCAAGTTAGTATAAAAAAGCAGGCATGG (double strand) |  | > 90

Reference: patent US5227288
